Hit rate of the full screen: of about 400,000 compounds, about 13,000 (3.2%) were called active. Inconclusive means that the source gave no clear call. Such entries were picked first, then a sample of the others. The call rests on the fitted dose curve; in most records, active means well fitted cell-killing curve with a large enough effect; inconclusive means small, poorly fitted or top-dose-only effect, or effect the other way; inactive means flat fitted curve, though single readings scatter. Potencies beside an inconclusive call are fits to weak or partial responses and may not hold up.
Experiment: qHTS assay for MDR1-selective chemotherapeutics: Primary screen using the drug-selected MDR subline cells KB-V1; further: nearly all actives have a fitted effect of over 60% in size
Details: KB-V1 MDR cells viability, CellTiter-Glo, 72 h; activity change, negative = cytotoxicity: at 46.1 µM (top of the series)
How it was run: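 In this primary screen, KB-V1 cells overexpressing P-gp are incubated with library compounds (lowest to highest concentration) for 72 h at 37 degrees C before a luminescent ATP viability read.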
On the % scale 0 is the no-effect control and ±100 the full control effect; potency means the concentration at half of the fitted maximal effect.

Row | SMILES | Potency | activity change, negative = cytotoxicity
1 | O=C(/C=C/c1ccccc1[N+](=O)[O-])OCC(=O)N1CCN(c2ccccc2)CC1 | inconclusive: 25.9 µM [rising, partial curve, poor fit] | 
2 | CCOc1ncccc1C(=O)N1CCN(c2cccc(C)c2C)CC1 | inconclusive: 1.3 µM [cytotoxic, full curve, poor fit] | 
3 | O=C(N/N=C/c1cccc(O)c1)c1cc(-c2ccccc2)nc2ccccc12 | inactive | 
4 | O=C(Nc1ccccn1)c1ccc(Cl)s1 | inactive | 
5 | CCCCCCn1c(=O)c(Cc2ccccc2)c(O)c2ccccc21 | inactive | 
6 | O=C(Nc1cccc([N+](=O)[O-])c1)NC1CCCCCCC1 | inconclusive: 23.1 µM [cytotoxic, partial curve] | 
7 | CC(C)c1ccc(C(C)NC(=S)NC2CCCCC2)cc1 (stereo not given) | inconclusive: 18.4 µM [cytotoxic, single point] | 
8 | C=CCn1c(O)c(N=Nc2nc3ccccc3c(=O)n2-c2ccccc2)c2ccccc21 | inconclusive: 18.4 µM [cytotoxic, partial curve] | 
9 | C/C(=N\Nc1nc(C)c(C)s1)c1ccc([N+](=O)[O-])cc1 | inconclusive: 16.4 µM [cytotoxic, single point] | 
10 | O=C(CCN1C(=O)C2CCCCC2C1=O)Nc1nc2ccc(F)cc2s1 (stereo not given) | inconclusive: 8.2 µM [cytotoxic, partial curve] | 
11 | COc1ccc(-c2nc(SC)n(C)c(=O)c2C#N)cc1OC | inactive | 
12 | CC(C)(C)OC(=O)NCCCCCNC(=O)c1[nH]cnc1C(=O)Nc1cccc(Cl)c1 | inconclusive: 8.2 µM [cytotoxic, partial curve] | 
13 | O=C(COc1ccccc1Cl)Nc1cc(NC(=O)COc2ccccc2Cl)cc(C(=O)O)c1 | inconclusive: 23.1 µM [rising, partial curve, poor fit] | 
14 | Cc1ccc(C)c(OCc2cc(C(=O)N3CCN(C(=O)c4ccco4)CC3)no2)c1 | inconclusive: 8.2 µM [cytotoxic, partial curve] | 
15 | CN(C)c1nc(NCc2ccccc2)nc(N/N=C/c2cccc(Br)c2)n1 | inconclusive: 9.2 µM [cytotoxic, partial curve, poor fit] | 
16 | N#CC1=C(N)C(C#N)(C#N)[C@H](c2c(F)cccc2F)[C@H]2CC3(CC=C12)OCCO3 | inconclusive: 14.6 µM [cytotoxic, partial curve] | 
17 | O=C1c2cccc3c(O)ccc(c23)C(=O)N1c1ccc(Cl)cc1 | inconclusive: 29.1 µM [cytotoxic, single point] | 
18 | c1ccc(-c2nc(NCc3cccnc3)c3oc4ccccc4c3n2)cc1 | inconclusive: 29.1 µM [cytotoxic, single point] | 
19 | COc1ccc(-c2oc3ccccc3c(=O)c2OC(=O)c2ccc(C)cc2)cc1 | active: 11.6 µM | 
20 | C1=Nc2ccccc2/C1=C/c1ccccc1 | inactive | 
21 | CCN1CCN(Cc2cc(=O)oc3ccc(Cl)cc23)CC1 | inactive | 
22 | CCc1ccc(S(=O)(=O)NCc2cccs2)cc1 | inconclusive: 13 µM [cytotoxic, partial curve, poor fit] | 
23 | Cc1ccccc1-c1csc(C(O)c2cccc(Cl)c2)n1 (stereo not given) | inconclusive: 20.6 µM [cytotoxic, single point] | 
24 | COCCS(=O)(=O)N(Cc1ccc(Br)cc1)[C@@H](C)C(=O)OC | inactive | 

Row | SMILES | Potency | activity change, negative = cytotoxicity
25 | O=C(C1CCC(CNc2c(N3CCCCC3)c(=O)c2=O)CC1)N1CCCC1 (stereo not given) | inactive | 
26 | CC(Oc1ccc(F)cc1)C(=O)Nc1ccccc1C(=O)NC1CC1 (stereo not given) | inconclusive: 8.2 µM [cytotoxic, partial curve] | 
27 | Cc1cc2c(cc1S(=O)(=O)C(C)CC(=O)NC1CCC(C)CC1)OCC(=O)N2 (stereo not given) | inactive | 
28 | O=C(O)CCNc1nc(-c2ccccc2)c2cc(Br)ccc2n1 | inactive | 
29 | CN1C(=O)c2ccc(C(=O)Nc3ccc4c(c3)OCO4)cc2C1=O | inconclusive: 29.1 µM [rising, single point] | 
30 | OCCC1CN(Cc2ccc(C(F)(F)F)cc2)CCN1Cc1ccccc1 (stereo not given) | inconclusive: 18.4 µM [cytotoxic, single point] | 
31 | Cc1cc(C)c2oc(C(=O)Nc3ccc(S(=O)(=O)Nc4ncccn4)cc3)cc(=O)c2c1 | inconclusive: 29.1 µM [rising, single point] | 
32 | COc1ccc2c(c1OC)C(=O)N1c3ccccc3C(=O)N(c3ccc(F)cc3)C21 (stereo not given) | inconclusive: 0.651 µM [cytotoxic, full curve, poor fit] | 
33 | Cc1cccc(NC(=O)CSc2nc3nc4c(cc3c(=O)n2-c2ccccc2)CCCC4)c1 | inconclusive: 18.4 µM [cytotoxic, single point] | 
34 | CC(C)C(NC(=O)CSCc1ccc([N+](=O)[O-])cc1)C(C)C | active: 18.4 µM | 
35 | CCC[C@@H](CN[C@@H](CNC)C(C)C)NCCCCc1ccccc1 | inconclusive: 29.1 µM [rising, single point] | 
36 | C[C@H]1CN([C@@H](C)CO)C(=O)CCCn2nncc2CO[C@@H]1CN(C)C(=O)c1ccc2ccn(C)c2c1 | inconclusive: 6.51 µM [rising, partial curve, poor fit] | 
37 | O=C(Nc1ccccc1C(F)(F)F)c1cc2nc(-c3ccccc3)cc(-c3ccccc3)n2n1 | inconclusive: 14.6 µM [rising, partial curve] | 
38 | CC(=O)Nc1c(-c2ccc3ccccc3c2)nc2ccccn12 | inactive | 
39 | CCC(=O)Nc1c(C(=O)Nc2ccc3c(c2)OCCO3)oc2ccccc12 | inconclusive: 6.51 µM [cytotoxic, full curve] | 
40 | COc1cc(OC)c(NS(=O)(=O)c2c(C)nc3sc(C)cn3c2=O)cc1Cl | inactive | 
41 | O=C(O)c1nc(NCc2ccccc2)ncc1Cl | inconclusive: 14.6 µM [rising, single point] | 
42 | CCCc1nnc(NC(=O)Cn2c(=O)oc3cc(Br)ccc32)s1 | inactive | 
43 | CO/N=C(/CNC(=O)c1ccccc1Cl)c1ccc(Cl)cc1 | active: 23.1 µM | 
44 | Cn1c(=O)c2c(nc(NCCOc3ccc(F)cc3)n2C)n(C)c1=O | inconclusive: 8.2 µM [cytotoxic, partial curve] | 
45 | Cc1ccc(OCCNC(=O)c2ccc3c(c2)OCO3)cc1 | inactive | 
46 | COc1cc(C2C(C#N)=C(N)Oc3c2ccc2ccccc32)ccc1OCC(=O)Nc1ccc(C)cc1 (stereo not given) | inconclusive: 29.1 µM [cytotoxic, single point] | 
47 | O=C(NCc1cccnc1)/C(=C/c1ccc(-c2ccc(Cl)cc2)o1)S(=O)(=O)c1ccccc1 | inconclusive: 6.51 µM [cytotoxic, full curve, poor fit] | 
48 | Cc1nc2ccccc2n1C(=O)N(C)C |  | inconclusive: 42%

Row | SMILES | Potency | activity change, negative = cytotoxicity
49 | O=C1NC2=C(C(=O)c3ccccc32)C(c2ccccc2)N1 (stereo not given) | inconclusive: 20.6 µM [cytotoxic, partial curve, poor fit] | 
50 | CN(C)C1=NCCN1CCC1CCCC1 | inactive | 
51 | Cc1ccc(C)c(S(=O)(=O)N2CCN(C(=O)/C=C/c3ccco3)CC2)c1 | inconclusive: 18.4 µM [cytotoxic, single point] | 
52 | CCCCCc1c(-c2ccc(Cl)cc2)ncn1CCc1ccccc1OC | active: 11.6 µM | 
53 | O=C(NCCc1ccccc1)c1ccc(-c2ccccc2C(F)(F)F)o1 | inactive | 
54 | COc1ccc(N2CCN(C(=O)[C@H](C)NC(=O)c3ccccc3Cl)CC2)cc1 | inconclusive: 14.6 µM [cytotoxic, partial curve] | 
55 | CCCCn1nnnc1C1(C)CCC(=O)N1Cc1cccc(F)c1 (stereo not given) | inactive | 
56 | CC(=O)c1ccc(OCc2cc(C(=O)N(C)CC3COc4ccccc4O3)no2)cc1 (stereo not given) | inconclusive: 20.6 µM [cytotoxic, single point] | 
57 | CC(C)(C)c1ccc(S(=O)(=O)NC(=O)C2(C)CCN2C(=O)CC2CCCCC2)cc1 (stereo not given) | inconclusive: 29.1 µM [cytotoxic, single point] | 
58 | CCSc1cc(N2CCCC2)nc(-c2ccccc2Cl)n1 | inconclusive: 29.1 µM [cytotoxic, single point] | 
59 | CCOc1ccc(NC(=O)CCC(=O)NNC(=O)Nc2cccc(Cl)c2)cc1 | inconclusive: 18.4 µM [rising, single point] | 
60 | Cc1ccc(-n2nnnc2SCC(=O)N2CCCCC2)cc1 | active: 9.2 µM | 
61 | CCc1ccc(C(=O)COC(=O)[C@@H](NC(N)=O)[C@@H](C)CC)cc1 | inconclusive: 18.4 µM [rising, single point] | 
62 | O=C1c2cccc3c([N+](=O)[O-])ccc(c23)C(=O)N1O | inactive | 
63 | COc1ccc(-c2nc(CN3CCC(C(=O)NCc4ccc(C)cc4)CC3)c(C)o2)cc1OC | inconclusive: 5.17 µM [cytotoxic, full curve, poor fit] | 
64 | CC(C)N(Cc1ccccc1)C(=O)CN1C(=O)NC2(CCOc3ccccc32)C1=O (stereo not given) | inconclusive: 29.1 µM [cytotoxic, single point] | 
65 | CCC1=NC(c2ccccc2)N(O)C1(C)C (stereo not given) | inconclusive: 16.4 µM [rising, partial curve, poor fit] | 
66 | O=C(CN1C(=O)c2cccc3cccc1c23)Nc1ccc2c(c1)OCO2 | inconclusive: 11.6 µM [cytotoxic, partial curve] | 
67 | Cc1cccc2cc(CN(Cc3cccnc3)C(=O)c3ccccc3F)c(Cl)nc12 | inconclusive: 0.82 µM [cytotoxic, full curve, poor fit] | 
68 | Cc1ccc(CN2CCN(Cc3cccc(-n4cccn4)c3)CC2CCO)cc1 (stereo not given) | inactive | 
69 | N/C(=N\OC(=O)Cc1cccs1)c1ccc([N+](=O)[O-])cc1 | inconclusive: 20.6 µM [rising, single point] | 
70 | COc1ccc2c(c1C)CCC(C)(C#N)C2=O (stereo not given) | inconclusive: 20.6 µM [cytotoxic, single point] | 

An excerpt of these results, as tab-separated lines:
Row	SMILES	Potency	activity change, negative = cytotoxicity
36	C[C@H]1CN([C@@H](C)CO)C(=O)CCCn2nncc2CO[C@@H]1CN(C)C(=O)c1ccc2ccn(C)c2c1	inconclusive: 6.51 µM [rising, partial curve, poor fit]	
37	O=C(Nc1ccccc1C(F)(F)F)c1cc2nc(-c3ccccc3)cc(-c3ccccc3)n2n1	inconclusive: 14.6 µM [rising, partial curve]	
38	CC(=O)Nc1c(-c2ccc3ccccc3c2)nc2ccccn12	inactive	
39	CCC(=O)Nc1c(C(=O)Nc2ccc3c(c2)OCCO3)oc2ccccc12	inconclusive: 6.51 µM [cytotoxic, full curve]	
40	COc1cc(OC)c(NS(=O)(=O)c2c(C)nc3sc(C)cn3c2=O)cc1Cl	inactive	
